As a reminder, the AC50 is the concentration at which the activity in the assay is half-maximal.

Some of the results follow. Shown are side measurements of this screen, not its main read-out; they come without a call. Most of these compounds were active or inconclusive in the main read-out, so they are no random draw. The note in brackets gives the kind of curve behind each potency; many fits are weak.

A short description of this test: qHTS Assay for Modulators of Lamin A Splicing. Particulars: HeLa LMNA splicing GFP/RFP minigene ratio, 48 h. Summed up:
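S3 HeLa cells stably expressing lamin A-EGFP splicing minigene plus DsRed2, 600 cells/well, 48 h compound exposure at 37C. Laser-scanning cytometry; analysed as GFP (500-530 nm)/RFP (575-640 nm) total intensity ratio; 0.5% DMSO vehicle.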
For orientation: Quantitative high-throughput screening tests each substance at several concentrations.

Setting [1] is: measured here: GFP splicing reporter channel.
Where [2] appears, read: measured here: RFP viability control channel.

With `Cc1cc(C)c(C#N)c(SCc2nc3ccccc3c(=O)[nH]2)n1`, the AC50 is 35.5 µM [falling, single point] under setting [1] and 35.5 µM [falling, partial curve, poor fit] under setting [2].
Take `CCS(=O)(=O)Nc1cccc(-c2cc(-c3ccccc3)c3cc(C)ccc3n2)c1`: the AC50 is 35.5 µM [falling, single point] under setting [1] and 22.4 µM [falling, partial curve] under setting [2].
With `Oc1c(I)cc(I)c2cccnc12`, the AC50 runs as follows: under setting [1], 12.6 µM [rising, single point]; under setting [2], 14.1 µM [rising, partial curve].
For the molecule `COC(=O)c1ccc(OCC(O)Cn2nnc3ccccc32)cc1` (stereo not drawn), the AC50 under setting [2] was 0.0112 µM [falling, full curve, poor fit].
With `COc1ccccc1-n1cnnc1SCC(=O)Nc1cc(C(C)(C)C)nn1-c1ccccc1`, the AC50 was 4.47 µM [rising, full curve, poor fit] under setting [1] and 11.2 µM [rising, partial curve] under setting [2].
For the molecule `CCc1nnc(NC(=O)CN2CCN(c3nc(-c4ccccc4)cs3)CC2)s1`, under setting [2], the AC50 was 17.8 µM [rising, single point].
For `CCN1CCN(CCCN(Cc2ccco2)C(=S)Nc2cc(Cl)ccc2C)CC1`, under setting [1], the AC50 is 11.2 µM [falling, partial curve].
As to `Cn1nc([N+](=O)[O-])c(C(C#N)c2nc3ccccc3n2C)c(Cl)c1=O` (stereo not drawn), the AC50 under setting [2] was 22.4 µM [rising, single point].
For `COc1cccc(C(=O)N2CCN(Cc3ccc4c(c3)OCO4)CC2)c1OC`, the half-maximal activity concentration (AC50) is, setting by setting: under setting [1], 22.4 µM [rising, partial curve, poor fit]; under setting [2], 25.1 µM [rising, single point].
Take `COc1ccc(C2(O)CN(c3ccccc3)C3=[N+]2CCS3)cc1OC` (stereo not drawn): the AC50 under setting [2] is 0.0891 µM [rising, full curve].
On the same count and under the same terms, as for `COc1ccc(-c2nc(C)c(CCNC(=O)C(=O)Nc3cccc(F)c3)s2)cc1OC`, the figure is 35.5 µM [falling, single point].
For `O=C(Nc1cccc(Cl)c1)c1ccc2c(=O)n3c(nc2c1)CCCCC3`, the concentration at half-maximal activity (AC50) is 10 µM [rising, partial curve, poor fit] under setting [1] and 12.6 µM [rising, partial curve] under setting [2].
Turning to `COc1ccc2cc(C(=O)Nc3ccc(O)cc3)sc(=O)c2c1OC`, under setting [2], the AC50 was 22.4 µM [rising, single point].
With `CCc1c(C)c(C#N)c2nc3ccccc3n2c1NCc1ccccn1`, the AC50 under setting [2] is 31.6 µM [falling, partial curve, poor fit].
For the molecule `O=C(CSc1nc2ccccc2s1)NC1CCCc2ccccc21` (stereo not drawn), under setting [2], the concentration at half-maximal activity (AC50) was 35.5 µM [rising, single point].
For the molecule `COc1ccccc1-c1cc(C(F)(F)F)nc(S(=O)(=O)CCCC(=O)N2CCCCC2C)n1` (stereo not drawn), the AC50 runs as follows: under setting [1], 35.5 µM [rising, single point]; under setting [2], 22.4 µM [falling, single point].
Take `Cc1cc(C)n2nc(SCC(=O)c3cc(C)n(-c4cc(C)on4)c3C)nc2n1`: the AC50 is, setting by setting: under setting [1], 0.794 µM [rising, full curve, poor fit]; under setting [2], 2.24 µM [rising, full curve].
With `COc1ccc(-n2c(=O)c3ccccc3n(CC(=O)Nc3cccc(OC)c3)c2=O)cc1`, the AC50 under setting [2] is 22.4 µM [falling, single point].
Take `O=[N+]([O-])c1ccc(Oc2cccc3cccnc23)c([N+](=O)[O-])c1`: under setting [1], the AC50 was 14.1 µM [rising, single point].
Turning to `COC(=O)c1cc(-c2c(C)oc3cc(OC(C)C)ccc3c2=O)c(C)o1`, the AC50 is, setting by setting: under setting [1], 17.8 µM [rising, single point]; under setting [2], 35.5 µM [rising, single point].
On to `COc1cc(NC(=S)NC(=O)c2ccc(C(C)(C)C)cc2)ccc1NC(=O)c1cccs1`, for which the AC50 under setting [2] is 1.78 µM [rising, full curve].
Still for that read-out and setting: next, `COc1cc(-c2nc3ccccc3c(=O)n2N)cc(OC)c1OC`: 0.00891 µM [falling, full curve, poor fit].
As for `N#Cc1ccc(/C=C/C(=O)c2ccco2)cc1`, under setting [1], the AC50 was 14.1 µM [rising, single point].
With `COc1cc(C(=O)OCc2ccc(C)cc2)cc(NC(=O)c2cccs2)c1OC`, the AC50 under setting [1] was 6.31 µM [rising, partial curve].
In the case of `Cc1cc(Cl)c(OCCCSc2nc(C)cc(=O)[nH]2)c(Br)c1`, the AC50 under setting [2] was 31.6 µM [rising, single point].
Turning to `COc1ccc(/C=C/C(=O)OCCC(C)C)cc1`, under setting [2], the AC50 was 17.8 µM [rising, single point].
Regarding `CC1=C(C(=O)OCc2ccccc2)C(c2ccccn2)c2c(n(C)c(=O)n(C)c2=O)N1` (stereo not drawn), the concentration at half-maximal activity (AC50) under setting [1] is 10 µM [rising, single point].
For `CSc1ccc(S(=O)(=O)Nc2ccc(N3CCOCC3)c(Cl)c2)cc1`, the AC50 under setting [2] is 15.8 µM [rising, partial curve].
`C=CS(=O)(=O)c1sc(Cl)c(N2CCOCC2)c1[N+](=O)[O-]`: the AC50 is 10 µM [falling, partial curve] under setting [1] and 11.2 µM [falling, partial curve] under setting [2].
Consider `CCOC(=O)c1sc2ccccc2c1S(=O)(=O)Nc1ccc(N(C)C)cc1`, for which, under setting [2], the AC50 was 10 µM [rising, partial curve, poor fit].
As to `C#C[C@]1(O)CC[C@@H]2[C@H]3CCC4=CCCC[C@@H]4[C@@H]3CC[C@@]21C`, the half-maximal activity concentration (AC50) reads like this: under setting [1], 2.82 µM [falling, full curve]; under setting [2], 2.82 µM [falling, full curve, poor fit].
For the molecule `CCn1cc[n+](C)c1P(c1ccccc1)c1ccccc1`, the AC50 under setting [2] was 12.6 µM [rising, partial curve, poor fit].
Still for that read-out and setting: next, `Cc1ccccc1C(=O)Nc1nnc(-c2ccc(F)cc2)o1`: 12.6 µM [rising, single point]; `O=C1/C(=C/c2ccccc2)NC(=S)N1C(c1ccccc1)c1ccccc1`: 35.5 µM [rising, single point].
Turning to `Cc1cc(C)cc(OCC(=O)NCC(c2ccc(Cl)cc2)N2CCCCC2)c1` (stereo not drawn), the concentration at half-maximal activity (AC50) under setting [1] is 31.6 µM [falling, single point] and the AC50 under setting [2] is 35.5 µM [falling, single point].
With `Cc1ccccc1Cn1cc(NC(=O)c2cc(-c3ccco3)on2)cn1`, the AC50 under setting [1] was 4.47 µM [falling, full curve, poor fit].

Source of the values: PubChem BioAssay AID1487 (National Center for Advancing Translational Sciences (NCATS), 2009).
